# These are yes or no findings as the source states them, for the method shown. In cells and extracts the contact can be indirect. Sequences can lack the tags named with a protein.
# The chains behind the UniProt entries cited, without tags or fusion partners.
# UniProt P13645: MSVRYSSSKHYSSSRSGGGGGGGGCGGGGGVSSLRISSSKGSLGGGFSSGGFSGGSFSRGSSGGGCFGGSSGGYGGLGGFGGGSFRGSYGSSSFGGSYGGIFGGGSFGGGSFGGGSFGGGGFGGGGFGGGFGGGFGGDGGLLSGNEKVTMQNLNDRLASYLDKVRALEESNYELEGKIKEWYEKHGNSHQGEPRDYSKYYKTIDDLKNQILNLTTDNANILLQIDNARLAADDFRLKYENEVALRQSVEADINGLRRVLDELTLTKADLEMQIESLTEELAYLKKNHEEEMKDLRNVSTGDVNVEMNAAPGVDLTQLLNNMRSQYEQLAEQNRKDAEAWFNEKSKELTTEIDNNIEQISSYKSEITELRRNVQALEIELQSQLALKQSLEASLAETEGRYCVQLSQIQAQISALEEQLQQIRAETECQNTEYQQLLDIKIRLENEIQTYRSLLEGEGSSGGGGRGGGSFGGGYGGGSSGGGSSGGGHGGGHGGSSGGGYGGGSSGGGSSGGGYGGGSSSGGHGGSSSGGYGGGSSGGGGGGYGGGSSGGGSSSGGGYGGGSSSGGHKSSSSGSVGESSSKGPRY
# UniProt P13647: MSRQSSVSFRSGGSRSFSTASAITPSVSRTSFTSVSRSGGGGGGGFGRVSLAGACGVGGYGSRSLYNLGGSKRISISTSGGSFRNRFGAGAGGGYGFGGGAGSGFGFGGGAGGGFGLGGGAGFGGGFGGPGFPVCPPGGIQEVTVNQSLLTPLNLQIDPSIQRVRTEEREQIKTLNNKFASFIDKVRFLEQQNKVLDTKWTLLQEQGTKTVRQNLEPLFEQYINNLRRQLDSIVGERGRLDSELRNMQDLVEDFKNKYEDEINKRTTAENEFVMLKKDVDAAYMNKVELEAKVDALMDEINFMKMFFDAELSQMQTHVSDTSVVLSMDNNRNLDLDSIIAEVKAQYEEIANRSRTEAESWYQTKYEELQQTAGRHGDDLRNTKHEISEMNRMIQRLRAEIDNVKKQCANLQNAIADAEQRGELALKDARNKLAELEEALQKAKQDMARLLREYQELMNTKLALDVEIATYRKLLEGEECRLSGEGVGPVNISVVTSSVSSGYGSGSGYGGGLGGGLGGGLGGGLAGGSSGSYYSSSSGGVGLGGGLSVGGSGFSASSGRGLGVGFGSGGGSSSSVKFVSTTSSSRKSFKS
# T1: Transglutaminase 3 (human (endogenous in A431)) (UniProt Q08188)
# T1 sequence: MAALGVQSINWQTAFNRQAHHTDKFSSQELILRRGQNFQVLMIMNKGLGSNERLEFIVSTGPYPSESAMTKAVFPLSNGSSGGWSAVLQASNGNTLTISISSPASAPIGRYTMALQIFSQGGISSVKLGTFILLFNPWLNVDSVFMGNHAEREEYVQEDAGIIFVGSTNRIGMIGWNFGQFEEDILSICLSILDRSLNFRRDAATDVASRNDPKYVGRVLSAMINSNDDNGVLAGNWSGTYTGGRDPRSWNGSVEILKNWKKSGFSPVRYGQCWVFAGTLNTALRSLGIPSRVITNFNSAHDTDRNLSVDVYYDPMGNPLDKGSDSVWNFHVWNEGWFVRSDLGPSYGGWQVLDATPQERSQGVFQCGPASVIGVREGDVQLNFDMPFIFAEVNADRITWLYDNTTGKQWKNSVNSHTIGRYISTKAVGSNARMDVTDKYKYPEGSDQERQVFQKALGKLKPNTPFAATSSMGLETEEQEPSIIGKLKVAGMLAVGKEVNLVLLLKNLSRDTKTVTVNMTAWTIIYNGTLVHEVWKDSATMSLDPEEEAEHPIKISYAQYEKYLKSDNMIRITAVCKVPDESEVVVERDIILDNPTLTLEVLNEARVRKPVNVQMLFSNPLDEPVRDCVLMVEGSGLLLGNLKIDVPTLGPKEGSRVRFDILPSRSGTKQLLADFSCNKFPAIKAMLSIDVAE
# Target: T1, Transglutaminase 3 (human (endogenous in A431))
# Assay: co-IP; cell lysate in IP lysis buffer with EDTA-free protease inhibitors, incubated with protein A/G beads and indicated antibodies overnight at 4 °C, washed thrice, western blotting; A431 cells according to the results and legend (the methods name HaCaT cells)
row,binding,Molecule
1,no binding,Keratin (KRT) 10 (from UniProt P13645 1-584)
2,no binding,KRT5 (from UniProt P13647 1-590)
3,no binding,"involucrin (protein, UniProt P07476 1-585) MSQQHTLPVTLSPALSQELLKTVPPPVNTHQEQMKQPTPLPPPCQKVPVELPVEVPSKQEEKHMTAVKGLPEQECEQQQKEPQEQELQQQHWEQHEEYQKAENPEQQLKQEKTQRDQQLNKQLEEEKKLLDQQLDQELVKRDEQLGMKKEQLLELPEQQEGHLKHLEQQEGQLKHPEQQEGQLELPEQQEGQLELPEQQEGQLELPEQQEGQLELPEQQEGQLELPEQQEGQLELPQQQEGQLELSEQQEGQLELSEQQEGQLKHLEHQEGQLEVPEEQMGQLKYLEQQEGQLKHLDQQEKQPELPEQQMGQLKHLEQQEGQPKHLEQQEGQLEQLEEQEGQLKHLEQQEGQLEHLEHQEGQLGLPEQQVLQLKQLEKQQGQPKHLEEEEGQLKHLVQQEGQLKHLVQQEGQLEQQERQVEHLEQQVGQLKHLEEQEGQLKHLEQQQGQLEVPEQQVGQPKNLEQEEKQLELPEQQEGQVKHLEKQEAQLELPEQQVGQPKHLEQQEKHLEHPEQQDGQLKHLEQQEGQLKDLEQQKGQLEQPVFAPAPGQVQDIQPALPTKGEVLLPVEHQQQKQEVQWPPKHK"
4,no binding,"loricrin (protein, UniProt P23490 1-312) MSYQKKQPTPQPPVDCVKTSGGGGGGGGSGGGGCGFFGGGGSGGGSSGSGCGYSGGGGYSGGGCGGGSSGGGGGGGIGGCGGGSGGSVKYSGGGGSSGGGSGCFSSGGGGSGCFSSGGGGSSGGGSGCFSSGGGGSSGGGSGCFSSGGGGFSGQAVQCQSYGGVSSGGSSGGGSGCFSSGGGGGSVCGYSGGGSGCGGGSSGGSGSGYVSSQQVTQTSCAPQPSYGGGSSGGGGSGGSGCFSSGGGGGSSGCGGGSSGIGSGCIISGGGSVCGGGSSGGGGGGSSVGGSGSGKGVPICHQTQQKQAPTWPSK"

# From PMC11001918
